According to article PMC12037725:
No constants are given. Whether binding was seen depends on the method and setting. In cells and extracts the contact can be indirect. Some binding calls cover weakened binding; strength is not graded here. For some of these results: Sequences can lack the tags named with a protein.

T1: BTS (BRUTUS), luciferase-half fusion for split-LUC (Arabidopsis thaliana) (UniProt Q8LPQ5)
T1 sequence: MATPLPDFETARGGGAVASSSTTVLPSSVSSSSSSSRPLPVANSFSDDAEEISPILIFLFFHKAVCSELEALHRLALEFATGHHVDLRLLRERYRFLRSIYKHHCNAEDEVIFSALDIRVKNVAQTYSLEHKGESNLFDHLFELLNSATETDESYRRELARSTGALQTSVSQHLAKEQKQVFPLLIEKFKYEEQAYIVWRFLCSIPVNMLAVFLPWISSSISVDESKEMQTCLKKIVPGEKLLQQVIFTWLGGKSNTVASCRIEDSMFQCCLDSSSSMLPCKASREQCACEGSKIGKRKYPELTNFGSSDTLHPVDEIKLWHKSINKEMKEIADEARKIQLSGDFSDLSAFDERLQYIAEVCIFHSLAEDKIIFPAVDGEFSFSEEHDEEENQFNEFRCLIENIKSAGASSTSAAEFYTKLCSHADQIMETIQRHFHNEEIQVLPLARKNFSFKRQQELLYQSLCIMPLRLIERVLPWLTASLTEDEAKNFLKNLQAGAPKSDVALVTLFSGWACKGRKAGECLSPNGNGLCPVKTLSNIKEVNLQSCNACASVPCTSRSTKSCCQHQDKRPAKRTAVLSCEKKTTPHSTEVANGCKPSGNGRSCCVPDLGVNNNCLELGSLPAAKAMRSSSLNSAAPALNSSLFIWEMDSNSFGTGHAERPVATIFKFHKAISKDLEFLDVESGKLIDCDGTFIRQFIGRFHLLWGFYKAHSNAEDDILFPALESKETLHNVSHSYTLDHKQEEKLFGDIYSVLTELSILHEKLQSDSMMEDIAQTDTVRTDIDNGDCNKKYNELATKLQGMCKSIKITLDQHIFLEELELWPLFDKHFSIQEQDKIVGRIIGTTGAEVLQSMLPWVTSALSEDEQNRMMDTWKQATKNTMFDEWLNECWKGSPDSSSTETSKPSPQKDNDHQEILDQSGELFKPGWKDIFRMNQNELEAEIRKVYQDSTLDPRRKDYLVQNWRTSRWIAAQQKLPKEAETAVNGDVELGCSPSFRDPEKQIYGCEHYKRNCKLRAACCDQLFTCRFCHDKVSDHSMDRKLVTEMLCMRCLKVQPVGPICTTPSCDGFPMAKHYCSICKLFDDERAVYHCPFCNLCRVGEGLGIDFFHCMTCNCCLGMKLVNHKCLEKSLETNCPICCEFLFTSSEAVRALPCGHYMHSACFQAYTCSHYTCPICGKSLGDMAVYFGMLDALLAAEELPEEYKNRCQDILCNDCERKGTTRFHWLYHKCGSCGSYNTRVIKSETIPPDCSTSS

T2: ILR3, luciferase-half fusion for split-LUC (Arabidopsis thaliana) (UniProt Q9FH37)
T2 sequence: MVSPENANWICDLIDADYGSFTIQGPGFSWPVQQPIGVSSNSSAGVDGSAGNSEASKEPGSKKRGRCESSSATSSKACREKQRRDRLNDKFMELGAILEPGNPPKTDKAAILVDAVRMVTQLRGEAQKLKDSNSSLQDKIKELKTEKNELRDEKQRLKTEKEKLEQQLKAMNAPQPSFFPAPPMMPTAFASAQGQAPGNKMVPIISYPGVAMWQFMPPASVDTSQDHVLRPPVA

T3: BTS-FLAG for co-immunoprecipitation (Arabidopsis thaliana) (UniProt Q8LPQ5)
T3 sequence: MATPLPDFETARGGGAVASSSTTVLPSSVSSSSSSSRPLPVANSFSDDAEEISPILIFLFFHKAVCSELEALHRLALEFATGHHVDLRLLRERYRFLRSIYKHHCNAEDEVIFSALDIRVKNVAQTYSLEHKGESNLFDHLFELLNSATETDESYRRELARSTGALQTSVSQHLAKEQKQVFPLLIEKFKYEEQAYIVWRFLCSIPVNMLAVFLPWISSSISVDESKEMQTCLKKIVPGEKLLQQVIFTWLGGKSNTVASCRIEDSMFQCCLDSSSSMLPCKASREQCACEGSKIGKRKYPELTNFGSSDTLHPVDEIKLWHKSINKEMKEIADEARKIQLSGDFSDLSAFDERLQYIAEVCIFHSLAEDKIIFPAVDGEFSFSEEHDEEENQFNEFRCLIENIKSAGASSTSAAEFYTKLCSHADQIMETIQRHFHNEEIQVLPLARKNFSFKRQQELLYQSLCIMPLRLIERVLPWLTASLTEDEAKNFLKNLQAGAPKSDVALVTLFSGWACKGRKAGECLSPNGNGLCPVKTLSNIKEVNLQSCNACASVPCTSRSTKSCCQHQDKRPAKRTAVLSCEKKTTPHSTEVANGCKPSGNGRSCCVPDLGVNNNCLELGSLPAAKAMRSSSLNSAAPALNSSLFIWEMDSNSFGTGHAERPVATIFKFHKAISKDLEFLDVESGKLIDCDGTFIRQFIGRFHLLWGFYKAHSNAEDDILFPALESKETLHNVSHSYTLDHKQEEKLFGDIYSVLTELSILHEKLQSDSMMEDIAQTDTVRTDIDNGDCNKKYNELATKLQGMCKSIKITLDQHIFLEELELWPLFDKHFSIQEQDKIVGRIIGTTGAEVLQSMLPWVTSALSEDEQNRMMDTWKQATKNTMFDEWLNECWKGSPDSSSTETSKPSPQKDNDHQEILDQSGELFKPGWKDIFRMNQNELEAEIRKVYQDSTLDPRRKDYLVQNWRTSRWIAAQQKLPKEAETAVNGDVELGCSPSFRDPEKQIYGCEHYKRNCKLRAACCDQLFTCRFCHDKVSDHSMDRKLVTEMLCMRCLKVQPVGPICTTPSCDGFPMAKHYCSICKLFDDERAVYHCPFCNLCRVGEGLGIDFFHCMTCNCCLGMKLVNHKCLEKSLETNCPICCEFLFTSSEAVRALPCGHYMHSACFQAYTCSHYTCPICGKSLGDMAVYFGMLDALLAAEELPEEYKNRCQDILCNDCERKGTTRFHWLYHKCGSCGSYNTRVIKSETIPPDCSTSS

T4: ILR3 for co-immunoprecipitation (Arabidopsis thaliana) (UniProt Q9FH37)
T4 sequence: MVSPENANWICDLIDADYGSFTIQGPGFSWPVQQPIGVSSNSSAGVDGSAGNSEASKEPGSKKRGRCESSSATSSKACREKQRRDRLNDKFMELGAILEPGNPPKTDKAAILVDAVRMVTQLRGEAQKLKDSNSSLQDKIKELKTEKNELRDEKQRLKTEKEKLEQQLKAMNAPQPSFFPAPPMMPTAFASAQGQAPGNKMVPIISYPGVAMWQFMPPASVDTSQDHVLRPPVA


Assays:
[1] = molecular target: T1, BTS (BRUTUS), luciferase-half fusion for split-LUC (Arabidopsis thaliana); experiment: split reporter; split-luciferase complementation imaging; nLUC and cLUC constructs co-infiltrated into N. benthamiana leaves, 0.5 mM luciferin after 48 h, CCD camera
[2] = molecular target: T2, ILR3, luciferase-half fusion for split-LUC (Arabidopsis thaliana); experiment: as above
[3] = molecular target: T3, BTS-FLAG for co-immunoprecipitation (Arabidopsis thaliana); experiment: co-IP; proteins transiently expressed in N. benthamiana leaves; immunoblot with anti-FLAG and anti-T7
[4] = molecular target: T4, ILR3 for co-immunoprecipitation (Arabidopsis thaliana); experiment: as above

binding [1] | binding [2] | binding [3] | binding [4] | Binder
binds | binds |  |  | RH24, luciferase-half fusion for split-LUC (enzyme, UniProt O22907 1-760) MSNRKFGMEGFGINRQTSYSFERSQAPQRLYVPPSSRGGDNSEDADLDNIDYMENEEAEEDIEEGGSAAASGGEVDEIDPLDAFMEGIHQEMKSAPPPKPKEKLERYKDDDDDPVESYLKAKKDLGLTLAADALNAGYNSDEEVYAAAKAVDAGMLDYDSDDNPIVVDKRKIEPITALDHSSIDYEPINKDFYEELESISGMTEQETTDYRQRLGIRVSGFDVHRPVKTFEDCGFSSQIMSAIKKQAYEKPTAIQCQALPIVLSGRDVIGIAKTGSGKTAAFVLPMIVHIMDQPELQRDEGPIGVICAPTRELAHQIFLEAKKFSKAYGLRVSAVYGGMSKHEQFKELKAGCEIVVATPGRLIDMLKMKALTMMRASYLVLDEADRMFDLGFEPQVRSIVGQIRPDRQTLLFSATMPWKVEKLAREILSDPIRVTVGEVGMANEDITQVVNVIPSDAEKLPWLLEKLPGMIDEGDVLVFASKKATVDEIEAQLTLNSFKVAALHGDKDQASRMETLQKFKSGVHHVLIATDVAARGLDIKSLKTVVNYDIAKDMDMHVHRIGRTGRAGDRDGVAYTLVTQREARFAGELVNSLVAAGQNVPPELTDLAMKDGRFKSKRDGRKGGKKGRGGGGGNKGVRGVDFGLGIGFSSESSRTPSSKAAPSRSGAINSVRTGVMAQFKNSFVAATPSNPQNQAYPNKRPSLMGFVSGGTIGGDMGRTQSQAPPVAPTQNASSHNSSQNHSQSSENRPRERKRRSGWDN
 |  | binds | binds | RH24-T7 for co-immunoprecipitation (enzyme, UniProt O22907 1-760) MSNRKFGMEGFGINRQTSYSFERSQAPQRLYVPPSSRGGDNSEDADLDNIDYMENEEAEEDIEEGGSAAASGGEVDEIDPLDAFMEGIHQEMKSAPPPKPKEKLERYKDDDDDPVESYLKAKKDLGLTLAADALNAGYNSDEEVYAAAKAVDAGMLDYDSDDNPIVVDKRKIEPITALDHSSIDYEPINKDFYEELESISGMTEQETTDYRQRLGIRVSGFDVHRPVKTFEDCGFSSQIMSAIKKQAYEKPTAIQCQALPIVLSGRDVIGIAKTGSGKTAAFVLPMIVHIMDQPELQRDEGPIGVICAPTRELAHQIFLEAKKFSKAYGLRVSAVYGGMSKHEQFKELKAGCEIVVATPGRLIDMLKMKALTMMRASYLVLDEADRMFDLGFEPQVRSIVGQIRPDRQTLLFSATMPWKVEKLAREILSDPIRVTVGEVGMANEDITQVVNVIPSDAEKLPWLLEKLPGMIDEGDVLVFASKKATVDEIEAQLTLNSFKVAALHGDKDQASRMETLQKFKSGVHHVLIATDVAARGLDIKSLKTVVNYDIAKDMDMHVHRIGRTGRAGDRDGVAYTLVTQREARFAGELVNSLVAAGQNVPPELTDLAMKDGRFKSKRDGRKGGKKGRGGGGGNKGVRGVDFGLGIGFSSESSRTPSSKAAPSRSGAINSVRTGVMAQFKNSFVAATPSNPQNQAYPNKRPSLMGFVSGGTIGGDMGRTQSQAPPVAPTQNASSHNSSQNHSQSSENRPRERKRRSGWDN
